Reference: PubChem BioAssay AID1259425 (University of Nebraska Medical Center, 2018)
Screen: 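Compare each knockdown with KSR1 silencing using changes in marker transcripts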 (primary screen). Cell system: HCT116 human colon cancer cells. Reagents: siRNA pool against human genes, 50 nM siRNA. Measurement: 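After 50 nM siRNA pool, branched-DNA assay measures six marker transcripts per well, minus blank, normalised to the geometric mean of two housekeeping transcripts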. Scale: BNIP3L mRNA: higher = more BNIP3L transcript after knockdown.
This is a random part of about 14,000 reagents. Not all columns of the deposit are shown. Reagent sequences are not shown. Not given: the time to read-out.

After knock-down of FGF14 the results were BNIP3L mRNA, set 1 = 0.387. Depletion of KRTAP3-3 came out at: BNIP3L mRNA, set 1 = 0.16. EREG showed BNIP3L mRNA, set 1 = 0.0643. Silencing of KAT6A gave: BNIP3L mRNA, set 1 = 0.0665. Depletion of ITPKB came out at: BNIP3L mRNA, set 1 = 0.0909. With knock-down of ZNF750, the record shows BNIP3L mRNA, set 1 = 0.0762.

For PACC1, the values are BNIP3L mRNA, set 1 = 0.0584. After knock-down of RAB38 the results were BNIP3L mRNA, set 1 = 0.158.

2 of these entries, set out differently:
| gene | BNIP3L mRNA, set 1 |
| --- | --- |
| KAT6A | 0.0665 |
| ITPKB | 0.0909 |

The results go on:
With knock-down of EVC2, the screen gave BNIP3L mRNA, set 1 = 0.135. With knock-down of PLEKHA6 the results were BNIP3L mRNA, set 1 = 0.0124. For QNG1, the values are BNIP3L mRNA, set 1 = 0.144. Against ACAP2, the entry reads BNIP3L mRNA, set 1 = 0.106.
